The target of the assay is FLAG-PHF3 (PHD-finger protein 3) (human) (UniProt Q92576). Nature of the assay: affinity purification with mass spectrometry; FLAG-PHF3 expressed in HEK293T; anti-FLAG M2 magnetic beads, lysate with benzonase; empty vector as control; SAINT-MS1.

Chains of the proteins cited; added tags and fusions are not shown.
UniProt Q92576: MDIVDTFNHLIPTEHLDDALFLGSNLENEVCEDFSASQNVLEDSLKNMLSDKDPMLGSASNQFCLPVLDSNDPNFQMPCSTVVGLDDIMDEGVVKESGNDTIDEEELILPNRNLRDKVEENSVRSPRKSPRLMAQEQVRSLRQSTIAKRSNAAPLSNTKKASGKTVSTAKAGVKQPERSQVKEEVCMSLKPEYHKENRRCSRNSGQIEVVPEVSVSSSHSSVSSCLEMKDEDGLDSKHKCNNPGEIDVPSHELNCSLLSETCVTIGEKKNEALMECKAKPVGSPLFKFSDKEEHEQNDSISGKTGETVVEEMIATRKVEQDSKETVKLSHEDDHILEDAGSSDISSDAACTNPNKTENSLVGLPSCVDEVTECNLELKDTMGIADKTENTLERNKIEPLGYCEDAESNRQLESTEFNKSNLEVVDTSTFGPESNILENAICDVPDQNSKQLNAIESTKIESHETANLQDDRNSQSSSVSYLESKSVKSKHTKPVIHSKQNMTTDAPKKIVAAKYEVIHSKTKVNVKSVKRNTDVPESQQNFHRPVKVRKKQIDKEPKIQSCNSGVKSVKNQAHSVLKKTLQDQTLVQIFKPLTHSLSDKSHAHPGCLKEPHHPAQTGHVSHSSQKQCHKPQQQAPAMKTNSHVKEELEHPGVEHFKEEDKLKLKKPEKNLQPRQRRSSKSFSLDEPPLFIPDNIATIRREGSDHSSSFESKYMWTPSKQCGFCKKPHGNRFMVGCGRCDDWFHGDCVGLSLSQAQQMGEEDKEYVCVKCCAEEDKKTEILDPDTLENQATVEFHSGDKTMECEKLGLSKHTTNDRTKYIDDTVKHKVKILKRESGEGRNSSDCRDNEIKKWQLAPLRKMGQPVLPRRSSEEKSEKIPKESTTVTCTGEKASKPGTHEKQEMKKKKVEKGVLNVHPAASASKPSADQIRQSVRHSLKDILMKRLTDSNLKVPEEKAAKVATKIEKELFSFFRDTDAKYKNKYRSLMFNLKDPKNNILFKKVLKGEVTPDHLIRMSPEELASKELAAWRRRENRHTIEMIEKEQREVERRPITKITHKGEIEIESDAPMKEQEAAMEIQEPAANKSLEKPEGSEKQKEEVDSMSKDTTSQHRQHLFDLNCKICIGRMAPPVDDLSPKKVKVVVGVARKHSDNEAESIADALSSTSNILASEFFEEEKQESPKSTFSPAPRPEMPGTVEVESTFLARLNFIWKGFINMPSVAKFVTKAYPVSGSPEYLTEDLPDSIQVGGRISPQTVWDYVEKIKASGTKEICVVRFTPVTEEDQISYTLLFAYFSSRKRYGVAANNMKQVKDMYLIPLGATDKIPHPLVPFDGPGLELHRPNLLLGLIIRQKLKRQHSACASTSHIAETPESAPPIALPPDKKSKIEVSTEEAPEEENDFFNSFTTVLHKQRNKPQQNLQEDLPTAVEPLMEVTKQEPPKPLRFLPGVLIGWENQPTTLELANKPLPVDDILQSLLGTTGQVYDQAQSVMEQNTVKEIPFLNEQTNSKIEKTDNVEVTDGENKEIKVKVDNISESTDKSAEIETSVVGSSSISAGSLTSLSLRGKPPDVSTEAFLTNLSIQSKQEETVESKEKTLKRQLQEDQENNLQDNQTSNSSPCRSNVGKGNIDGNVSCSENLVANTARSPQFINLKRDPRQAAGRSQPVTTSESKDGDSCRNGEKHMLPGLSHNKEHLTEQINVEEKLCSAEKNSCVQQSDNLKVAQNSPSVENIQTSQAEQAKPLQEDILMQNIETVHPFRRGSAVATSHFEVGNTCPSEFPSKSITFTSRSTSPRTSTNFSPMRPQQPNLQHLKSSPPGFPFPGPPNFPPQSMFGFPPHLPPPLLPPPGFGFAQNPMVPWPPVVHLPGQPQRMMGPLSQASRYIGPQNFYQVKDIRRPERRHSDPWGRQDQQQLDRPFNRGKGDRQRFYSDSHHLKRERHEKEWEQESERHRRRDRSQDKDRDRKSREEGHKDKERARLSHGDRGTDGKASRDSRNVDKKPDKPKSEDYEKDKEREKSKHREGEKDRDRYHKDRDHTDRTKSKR
UniProt P38159: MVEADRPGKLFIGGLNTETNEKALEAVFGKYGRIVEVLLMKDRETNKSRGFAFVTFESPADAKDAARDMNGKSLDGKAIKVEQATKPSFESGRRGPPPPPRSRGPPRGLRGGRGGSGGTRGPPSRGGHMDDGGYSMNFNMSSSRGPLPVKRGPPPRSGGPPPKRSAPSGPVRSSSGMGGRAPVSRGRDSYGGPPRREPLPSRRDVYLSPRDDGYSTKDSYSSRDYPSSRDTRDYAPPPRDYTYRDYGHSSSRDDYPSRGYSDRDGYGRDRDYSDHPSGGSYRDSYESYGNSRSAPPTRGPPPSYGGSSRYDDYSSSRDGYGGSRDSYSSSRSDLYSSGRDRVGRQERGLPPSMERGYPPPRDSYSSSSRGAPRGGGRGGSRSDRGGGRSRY
UniProt P18583: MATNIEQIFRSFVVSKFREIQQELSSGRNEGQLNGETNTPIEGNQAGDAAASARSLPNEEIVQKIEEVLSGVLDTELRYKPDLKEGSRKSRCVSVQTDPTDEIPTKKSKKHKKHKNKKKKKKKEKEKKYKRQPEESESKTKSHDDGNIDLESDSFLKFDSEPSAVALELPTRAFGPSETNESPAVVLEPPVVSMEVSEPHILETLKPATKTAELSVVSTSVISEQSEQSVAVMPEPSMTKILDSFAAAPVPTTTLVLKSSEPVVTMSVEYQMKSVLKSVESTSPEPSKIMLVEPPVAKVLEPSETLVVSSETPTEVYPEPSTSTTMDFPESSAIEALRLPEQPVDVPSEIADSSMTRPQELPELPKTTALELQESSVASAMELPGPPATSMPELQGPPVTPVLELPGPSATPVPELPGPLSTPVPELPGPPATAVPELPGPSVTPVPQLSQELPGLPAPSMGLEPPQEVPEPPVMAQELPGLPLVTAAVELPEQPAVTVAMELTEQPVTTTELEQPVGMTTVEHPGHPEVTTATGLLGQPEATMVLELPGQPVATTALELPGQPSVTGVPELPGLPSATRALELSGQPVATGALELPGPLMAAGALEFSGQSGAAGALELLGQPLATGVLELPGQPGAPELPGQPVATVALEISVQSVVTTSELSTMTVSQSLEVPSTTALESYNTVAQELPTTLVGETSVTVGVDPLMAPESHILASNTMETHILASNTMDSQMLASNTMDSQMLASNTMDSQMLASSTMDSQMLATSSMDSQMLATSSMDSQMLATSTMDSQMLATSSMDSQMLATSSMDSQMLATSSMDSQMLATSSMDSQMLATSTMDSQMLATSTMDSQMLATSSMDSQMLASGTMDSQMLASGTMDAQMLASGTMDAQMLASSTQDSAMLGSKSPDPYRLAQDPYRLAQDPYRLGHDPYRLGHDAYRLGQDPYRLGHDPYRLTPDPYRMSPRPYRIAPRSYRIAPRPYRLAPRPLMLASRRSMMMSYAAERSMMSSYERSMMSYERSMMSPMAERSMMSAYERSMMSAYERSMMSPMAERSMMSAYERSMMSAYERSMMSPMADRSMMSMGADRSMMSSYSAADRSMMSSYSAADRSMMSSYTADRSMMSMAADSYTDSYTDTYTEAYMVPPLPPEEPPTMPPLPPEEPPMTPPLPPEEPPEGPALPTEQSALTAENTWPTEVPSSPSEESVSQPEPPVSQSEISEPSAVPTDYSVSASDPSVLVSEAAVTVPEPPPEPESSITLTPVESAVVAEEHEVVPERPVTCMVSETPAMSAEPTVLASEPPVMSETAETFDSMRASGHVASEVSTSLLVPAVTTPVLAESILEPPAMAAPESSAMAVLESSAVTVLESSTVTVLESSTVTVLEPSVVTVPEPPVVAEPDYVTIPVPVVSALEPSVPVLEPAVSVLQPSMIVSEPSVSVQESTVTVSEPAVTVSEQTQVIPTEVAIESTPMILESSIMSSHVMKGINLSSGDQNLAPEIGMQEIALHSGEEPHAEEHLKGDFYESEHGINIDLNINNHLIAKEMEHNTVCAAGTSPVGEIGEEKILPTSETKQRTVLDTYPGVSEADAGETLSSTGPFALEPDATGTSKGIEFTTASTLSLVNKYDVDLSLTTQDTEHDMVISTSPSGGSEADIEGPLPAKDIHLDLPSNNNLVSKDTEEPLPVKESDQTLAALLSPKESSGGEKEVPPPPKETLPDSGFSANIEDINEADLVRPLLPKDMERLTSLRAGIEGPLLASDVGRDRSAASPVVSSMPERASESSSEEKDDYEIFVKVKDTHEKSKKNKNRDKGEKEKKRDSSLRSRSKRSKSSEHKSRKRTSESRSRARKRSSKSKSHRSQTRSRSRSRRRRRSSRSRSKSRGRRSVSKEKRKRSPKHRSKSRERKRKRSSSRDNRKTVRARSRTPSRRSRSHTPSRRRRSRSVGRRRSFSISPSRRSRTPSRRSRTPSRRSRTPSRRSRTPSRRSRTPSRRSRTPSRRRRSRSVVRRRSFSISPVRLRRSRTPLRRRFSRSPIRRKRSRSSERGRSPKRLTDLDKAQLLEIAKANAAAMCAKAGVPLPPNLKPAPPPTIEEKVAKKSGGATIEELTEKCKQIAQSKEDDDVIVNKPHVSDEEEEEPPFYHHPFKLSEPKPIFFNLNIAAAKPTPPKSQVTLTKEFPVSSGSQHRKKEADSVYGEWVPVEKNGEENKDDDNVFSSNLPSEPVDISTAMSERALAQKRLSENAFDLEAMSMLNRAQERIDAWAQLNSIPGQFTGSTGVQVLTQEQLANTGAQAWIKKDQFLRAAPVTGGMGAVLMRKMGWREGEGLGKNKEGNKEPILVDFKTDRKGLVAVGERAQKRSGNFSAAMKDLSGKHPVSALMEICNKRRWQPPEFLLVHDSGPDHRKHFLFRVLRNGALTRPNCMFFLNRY

These are yes or no findings as the source states them, for the method shown. In cells and extracts the contact can be indirect. These calls come from enrichment with a bait or labelling near it, and not all partners need be listed.

Regarding RBMX (from UniProt P38159 1-391), the binding entry is given as “binds”.

For the substance SON (from UniProt P18583 1-2426), the binding result is “binds”.

The values above are taken from PMC8526623.
